# System: T. cruzi amastigote
# Test: Activity against intracellular amastigotes of T. cruzi within infected macrophages (Giemsa, light microscope, 48 h)
# Format: cell-based, Trypanosoma cruzi (Y strain)
# Settings: selectivity index = CC50 against NCTC cells / EC50 against amastigotes
# Description: The experimental animals were sourced from the animal breeding facility located at Instituto Adolfo Lutz in São Paulo State, Brazil. Peritoneal macrophages were extracted from female BALB/c mice for intracellular experiments, while male BALB/c mice were utilized to sustain T. cruzi. These animals were provided unlimited access to both water and food, residing in sterilized enclosures within a meticulously regulated environment. All procedures were previously approved by the Animal Ethics Commission of Instituto Adolfo Lutz.
# NCTC cells (clone 929, ATCC) were cultured in RPMI-1640 supplemented with 10% of fetal bovine serum (FBS), at 37 °C within a 5% CO2-humidified incubator. To collect peritoneal macrophages, the abdominal cavity of female BALB/c mice was rinsed with an RPMI-1640 medium, containing 10% FBS. […]
# The EC50 values for compounds 1–8 against intracellular amastigotes of T. cruzi were determined within infected macrophages. […] Trypomastigotes, previously derived from infected LLC-MK2 cells, underwent washing in an RPMI-1640 medium, were quantified, and were then employed to infect the macrophages at a concentration of 1 × 10^6 trypomastigotes per well. […] At the final stage of the experiment, the chamber slides were fixed using MeOH and stained with Giemsa before being assessed under a light microscope (Thermo EVOS M5000). […]
smiles,measurement,value
"COc1c(O)cc2oc(-c3ccc(O)cc3)cc(=O)c2c1O [Compound 4, Hispidulin]",T. cruzi Amastigote SI,> 12.6

# From publication PMC10780275, “Evaluation of Anti-Trypanosoma cruzi Activity of Chemical Constituents from Baccharis sphenophylla Isolated Using High-Performance Countercurrent Chromatography” (Molecules, 2023)
